PubChem BioAssay AID2685 (National Center for Advancing Translational Sciences (NCATS), 2010)
In all, about 320,000 compounds went through this assay and about 2,100 (0.66%) were called active. The shares of active, inactive and inconclusive entries below differ from those in the screen. The call rests on the fitted dose curve; in most records, active means well fitted inhibition curve with a large enough effect in the signal ratio, with a control signal flat (not every such curve was filed as active); inconclusive means small, poorly fitted or top-dose-only effect, or effect the other way, or a change in a side signal; inactive means flat fitted curve, though single readings scatter; the % refers to the signal ratio. Where the call is inconclusive, the potency comes from a doubtful curve fit.

Test: qHTS Assay for Lipid Storage Modulators in Drosophila S3 Cells
Conditions: BODIPY lipid droplet fluorescence, 18-24 h, cells fed with added oleic acid; lipid storage change, negative = inhibition: at 46.1 µM (top of the series) unless noted
How it was run: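 Laser-scanning cytometry quantifies lipid droplet accumulation (500–530 nm total intensity; droplet/cell object ratio) in oleic acid-fed (400 uM added) Drosophila S3 cells treated with a concentration series. 20 uM Triacsin C defined 100% inhibition.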
On the % scale 0 is the no-effect control and ±100 the full control effect; potency means the concentration at half of the fitted maximal effect.

Lipid storage change, negative = inhibition, inactive:
CCN(CC)c1ccc(C=C2C(=O)OC(c3ccccc3)OC2=O)cc1 (stereo unspecified), CCOc1ccc(C=NC23CN4CN(CN(C4)C2)C3)cc1, CC(C)c1ccc(C(O)P(=O)(OCc2ccccc2)c2ccc(N(C)C)cc2)cc1 (stereo unspecified), O=C(NCc1n[nH]c(=S)n1-c1ccccc1)c1ccc(S(=O)(=O)N2CCCCC2)cc1

Lipid storage change, negative = inhibition, inconclusive:
CCCNC(=O)CCc1c(C)nc2c(c(C)nn2-c2ccccc2)c1C 17.8%, N#CC1=C(N)Oc2n[nH]c(-c3ccc(F)cc3)c2C1c1cccc(OC(=O)N2CCOCC2)c1 (stereo unspecified) -17.7%, CCN1CCN(C(=O)c2cc(=O)c3cc(C)ccc3o2)CC1 -104%, CCCCc1nc2cc(C(=O)N3CCCCC3COC)ccc2o1 (stereo unspecified) 238%, O=C(NC1CCCCC1)C1CC(=O)N(CCc2ccccc2)C1 (stereo unspecified) 37%, CN(C(=O)CSc1nnc(COc2ccccc2F)n1N)C1CCCCC1 -61.2%, CCCn1c(N)c(N(CCOC)C(=O)c2ccc(Cl)c([N+](=O)[O-])c2)c(=O)[nH]c1=O -23.2%, CCOC(=O)c1c(-c2cccc([N+](=O)[O-])c2)csc1NC(=O)C1CC1 -3.3%, O=c1cc(-c2ccc(Cl)c(Cl)c2)[nH][nH]1 8.07%, COc1ccc(C(c2c(N)[nH]c(=S)[nH]c2=O)c2c(N)[nH]c(=S)[nH]c2=O)cc1 37.9%, O=C(Nc1c2c(nc3ccccc13)CCCC2)c1ccccc1F 18.2%, CCn1cc(Br)c(C(=O)Nc2ccc(C(=O)OC(C)C)cc2)n1 10.9%, COc1ccc(CC(NC(C)=O)C(=O)NC2CCN(C(=O)c3ccc(Cl)cc3)CC2)cc1 (stereo unspecified) -66%, Cc1ccccc1-n1c(=O)cc(N2CCN(Cc3ccccc3)CC2)[nH]c1=O 38.1%, CC(C)CNc1oc(-c2ccc(F)cc2)nc1C#N 1.04%, COc1cc(-c2noc(C)c2C(=O)NCCO)cc(OC)c1OC -8.92%, CCOc1cc(CN2CCC(CO)(Cc3cccc(C(F)(F)F)c3)CC2)ccc1OC 5.01%, C/C(=N\NC(=O)c1c(Cl)c(C)nn1C)c1ccc(NC(=O)C2CCC2)cc1 -15.4%, CCOc1ccccc1NC(=O)c1ccccc1-c1ccccc1 13.6%, COC(C(=O)Nc1ccc(Cl)cc1C)c1ccccc1 (stereo unspecified) 9.94%, COc1ccc(CCNC(=O)CSc2nnc3ccc(-c4ccncc4)nn23)cc1 7.31%, Cc1ccc(S(=O)(=O)N2CCOCC2)cc1C(=O)Nc1ccccc1N1CCCC1 24.8%, CCn1ccc(C(=O)N2CCOCC2)n1 -27.6%, O=C(c1cnc2ccccn2c1=O)N1CCc2ccccc21 24.6%, CCOC(=O)N1CCC(Nc2c(NCCN3CCN(c4cccc(Cl)c4)CC3)c(=O)c2=O)CC1 83.8%, CC(C)c1nc(SCC(=O)NCc2ccccc2)n[nH]1 -54.3%, CC(C)Cc1nnc(NC(=O)CCN2C(=O)c3ccccc3C2=O)s1 -4.23%, CCn1cc2nc(SCC(=O)Nc3ccccc3F)n(Cc3ccccc3)c(=O)c2n1 -51.3%, CCN(CC)C(=O)COc1ccc(/C(C)=N/NC(=O)c2ccccc2-n2cccc2)cc1 -48.1%, N#CCOC(=O)[C@H](Cc1ccccc1)N1C(=O)c2ccccc2C1=O 8%, COc1ccc2occ(C(=O)c3coc4ccc(O)c(CN(C)C)c34)c2c1 88.4%, CC(NC(=O)COC(=O)/C=C/c1ccc(Cl)cc1)c1ccccc1 (stereo unspecified) 6.53%, Cc1ccc(NC(=O)NC(=O)N(C(C)C)S(=O)(=O)c2ccc(C)cc2)cc1 28.5%, COc1ccc(C2=CC3=C(Br)C(=O)C(C)(OC(=O)C4CCCC4)C(=O)C3=CO2)cc1 (stereo unspecified) -12%, Cc1ccc[n+](-c2nc([O-])sc2C=O)c1 -50.6%, COc1cc(C(=O)OCc2cc(=O)c(O)co2)ccc1OC(F)F 16.1%, C=CCSc1nc(C)c(CC=C)c(=O)[nH]1 -40.4%, CCOC(=O)c1c(NC(=O)CSc2nnc(Cc3csc(N)n3)n2C)sc(C)c1C 11.2%, O=C(CN1CCOCC1)N/N=C/c1ccccc1 152%, O=C(c1ccc2c(c1)OCO2)N(Cc1ccco1)C1(C(=O)NC2CCCCC2)CCCCC1 -2.89%, O=C(Nc1ncccn1)c1cc(-c2cccc(Br)c2)nc2ccccc12 49.9%, NCC12CC3CC(C1)CC(CN)(C3)C2 6.9%, COc1ccc(NC2=CC(=O)CC(c3ccccc3)C2)c(OC)c1 (stereo unspecified) -2.88%, CC(=O)CSc1ncnc2sc3c(c12)CCC(C)C3 (stereo unspecified) 20.5% [at 9.22 µM], COc1ccc(-c2csc(Nc3ccc(S(=O)(=O)Nc4cc(OC)nc(OC)n4)cc3)n2)cc1 23.9%, COc1ccc(/C=C/C(=O)NCCSCc2ccco2)cc1 14.3%

Potency, active:
O=C(Nc1ccon1)c1ccccc1F 23.1 µM

Potency, inconclusive:
COc1cc2c(cc1OC)C1=C(C#N)COCN1CC2 3.66 µM [activator, single point], Cc1ccc(OCCn2nc3ccccc3n2)c(C)c1 14.6 µM [activator, partial curve], COc1cc(N=Cc2c(CO)cnc(C)c2O)cc(OC)c1OC 29.1 µM [activator, single point], CC(=O)N/C(=C\c1ccccc1)C(=O)OCC(=O)NC(C)C12CC3CC(CC(C3)C1)C2 (stereo unspecified) 29.1 µM [falling, single point], CN(C)S(=O)(=O)c1ccc(C(=O)Nc2nnc(Cc3ccccc3)s2)cc1 0.0046 µM [falling, full curve, poor fit], CC1CCCN(C(=O)C2CCN(c3nc(-c4ccccc4)nc4c3CCC4)CC2)C1 (stereo unspecified) 0.259 µM [activator, full curve], COc1ccc(S(=O)(=O)NCC2CCCN(C(=O)CNC(C)=O)C2)cc1 (stereo unspecified) 0.13 µM [falling, full curve, poor fit], CCOC(=O)c1c(-c2ccc(C)cc2)csc1NC(=O)c1cc2ccccc2oc1=O 16.4 µM [falling, single point], COc1cc(C2Nc3cccc4cccc(c34)N2)ccc1OC(C)=O 6.51 µM [activator, single point], COc1ccc(C(=O)N(Cc2cccs2)C2CCS(=O)(=O)C2)cc1 (stereo unspecified) 0.82 µM [activator, full curve], O=C(CSCc1ccc(Br)cc1)NCCc1ccccc1 20.6 µM [activator, partial curve, poor fit], Cc1ccc(S(=O)(=O)N(CC(O)CN2CCCCC2)c2ccccc2)cc1 (stereo unspecified) 6.51 µM [falling, single point], COc1ccc([C@@H]2CC=C(C(=O)O)[C@H](c3cccc(Cl)c3)N2S(=O)(=O)c2ccc(C)cc2)cc1OC 0.116 µM [falling, full curve, poor fit], Cc1nn(C(=O)c2cccs2)c(C)c1CN1C(=O)c2ccccc2C1=O 2.59 µM [activator, partial curve], CCC1CCCCN1C(=O)CCCOc1ccccc1 (stereo unspecified) 29.1 µM [falling, single point], COc1cc(C(=O)Cc2nc3ccccc3n2C)cc(OC)c1OC 29.1 µM [activator, single point], COc1ccc(NS(=O)(=O)c2c(F)cc(F)c(Cl)c2F)cc1S(=O)(=O)N1CCCCC1 2.31 µM [activator, partial curve], c1csc(-c2csc3nc(CN4CCOCC4)nc(NCc4ccc5c(c4)OCO5)c23)c1 0.517 µM [rising, full curve], Cc1c(Cl)ccc(S(=O)(=O)NCCN2CCOCC2)c1Cl 13 µM [activator, single point], COc1ccccc1NC(=O)CCC(=O)N/N=C(/C)c1ccc(C)cc1 10.3 µM [activator, partial curve], O=C(Nc1ccc(Cl)c(Cl)c1)OCCNC(=O)c1cccc(Cl)c1 20.6 µM [activator, partial curve], CC(NC(=O)COC(=O)CCc1ccc(S(=O)(=O)N2CCOCC2)cc1)C1CC2CCC1C2 (stereo unspecified) 0.082 µM [falling, full curve, poor fit], CCCCCn1c(=O)[nH]c2cc(C(=O)NCCN3CCCCC3C)ccc2c1=O (stereo unspecified) 29.1 µM [falling, single point], Cc1ccc(SCC(=O)N2c3ccccc3Sc3ccccc32)cc1 2.91 µM [falling, single point], O=C(c1ccco1)N1CCN(C(=O)c2ccc(CS(=O)c3ccc(F)cc3)o2)CC1 (stereo unspecified) 20.6 µM [falling, single point]
